Assay results: US20040138169A1, “Composition and use of substances for stabilising amino acids containing sulphur” (priority 2001, published 2004)

Test system: HCY-concentration in whole blood
Test: Stabilization of the homocysteine (HCY) concentration in withdrawn whole blood stored in monovettes with stabilizer
Assay type: cell-based
Conditions: for HCY VK (variation coefficient): over the HCY stabilization duration, room temperature
Procedure: Material Used and Processes
The following inhibitors of methyl transferase or S-adenosylhomocysteine hydrolase have been tested
The effectiveness of the inhibitors have been tested in combination with the following acids:
The compositions of further reagents have been:
Mixture A: 5(4)-AMCA (5.2 mg) and DEOA (3.2 mg), dissolved in 500 μl phosphate buffer.
Composition of the buffer for mixture A:
All other substances have been dissolved in water.
Blood Withdrawal and Treatment of Samples
Corresponding amounts of stabilizers have been provided in EDTA- or Na-heparin-monovettes for each Example or Comparative Example (see Table 1). The blood withdrawal has been carried out in monovettes with and without stabilizers. For the control value, the monovettes have been centrifuged within 30 minutes after withdrawal.

Structure (SMILES) | variations of the measured values, homocysteine (in 60 hours) | HCY VK (variation coefficient) (whole blood) | variation coefficient VK of HCY (whole blood, 143 hours) [%]
Nc1nccc2c1ncn2[C@@H]1O[C@H](CO)[C@@H](O)[C@H]1O [Cmp.-Ex. 1, 3-deazaadenosin] | up to 2 μmol/l | (VK: 6%) | –
O=C1O[C@H]([C@@H](O)CO)C(O)=C1O [Cmp.-Ex. 2, ascorbic acid] | – | (VK: 8%) | –
Nc1nccc2c1ncn2[C@@H]1C=C(CO)[C@@H](O)[C@H]1O [Ex. 14, 3-deazaneplanocin A] | – | (VK4.2%) | < 5
Nc1ncnc2c1ncn2[C@@H]1C=C(CO)[C@@H](O)[C@H]1O [Ex. 13, neplanocin A] | – | VK(4.5%) | –
O=C(O)/C=C/C(=O)O [Cmp.-Ex. 3, fumaric acid] | – | (VK: 8%) | –
